Results reported in article PMC10531723.
These are yes or no findings as the source states them, for the method shown. Some entries that bind do so weakly or less than the wild type.

Target: PrP-CFP (mouse PrP(23-231) fused to CFP) (mouse) (UniProt P04925)
Assay: semi-denaturing detergent agarose gel electrophoresis (SDD-AGE)

PrP-CFP (mouse PrP(23-231) fused to CFP) (from UniProt P04925 23-231) (domain or fragment)
binding: binds
